The target in the series is MBP-SlMYC2 (Solanum lycopersicum) (UniProt A0A3Q7HRZ6). As to the kind of experiment: EMSA. The settings on record: binding stated to be G-box-like motif-dependent, extent of loss only visible in gel; LightShift Chemiluminescent EMSA kit (Thermo Scientific), acrylamide gel; pH and temperature not given; recombinant protein; protein details: N-terminal MBP (pMAL-c2). On the technique in general: Mobility shift assays separate free from complexed probe on a gel.

Protein sequences, listed by entry. Tags and fused reporters are not part of them. Lines headed by an entry give the natural chain unless they say otherwise; changes in a name come on top.
UniProt A0A3Q7HRZ6: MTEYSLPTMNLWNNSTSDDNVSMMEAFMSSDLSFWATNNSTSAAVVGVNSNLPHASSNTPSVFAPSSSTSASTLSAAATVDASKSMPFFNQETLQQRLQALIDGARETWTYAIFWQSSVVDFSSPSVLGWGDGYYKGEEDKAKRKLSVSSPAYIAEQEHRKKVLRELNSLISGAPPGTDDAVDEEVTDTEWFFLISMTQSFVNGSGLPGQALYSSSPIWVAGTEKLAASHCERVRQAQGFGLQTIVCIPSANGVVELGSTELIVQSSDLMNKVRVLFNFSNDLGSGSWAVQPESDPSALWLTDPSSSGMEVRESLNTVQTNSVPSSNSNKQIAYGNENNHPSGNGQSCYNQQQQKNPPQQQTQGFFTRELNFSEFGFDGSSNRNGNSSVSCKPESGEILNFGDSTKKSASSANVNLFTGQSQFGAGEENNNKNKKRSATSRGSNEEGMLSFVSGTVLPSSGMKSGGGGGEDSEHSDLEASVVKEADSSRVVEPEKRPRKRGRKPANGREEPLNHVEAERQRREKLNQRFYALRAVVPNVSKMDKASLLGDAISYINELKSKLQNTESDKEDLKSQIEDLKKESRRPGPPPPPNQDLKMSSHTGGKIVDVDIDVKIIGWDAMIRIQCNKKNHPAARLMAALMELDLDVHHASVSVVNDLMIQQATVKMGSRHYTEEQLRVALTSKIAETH

For at least one entry, the source does not settle the construct or the ends of the probe. Weaker means in comparison with the reference protein, sequence or condition of that experiment. At least one verdict rests on a figure or table, not on a statement of the authors.

As for “TCGGTTTGACTAAATTCCTAAAGCTTGCACTAAAATGAAACC / GGTTTCATTTTAGTGCAAGCTTTATGGAATTTAGTCAAACCGA [TomLoxDpro probe-369 Mut]”, the binding result is recorded as “binds more weakly”.

These data come from PMC3861047.
